The target in this assay is programmed cell death-ligand 1 (PD-L1) (UniProt Q9NZQ7). Kind of assay: co-IP; 293T cells transfected with PD-L1 plasmid and SPOP plasmid; cells lysed with IP cell lysis buffer with 1% protease inhibitor; lysate incubated with anti-FLAG beads overnight at 4°C, washed five times, immunoblot.

The chains behind the UniProt entries cited, without tags or fusion partners. Residues count along the entry.
UniProt Q9NZQ7, residues 19-290: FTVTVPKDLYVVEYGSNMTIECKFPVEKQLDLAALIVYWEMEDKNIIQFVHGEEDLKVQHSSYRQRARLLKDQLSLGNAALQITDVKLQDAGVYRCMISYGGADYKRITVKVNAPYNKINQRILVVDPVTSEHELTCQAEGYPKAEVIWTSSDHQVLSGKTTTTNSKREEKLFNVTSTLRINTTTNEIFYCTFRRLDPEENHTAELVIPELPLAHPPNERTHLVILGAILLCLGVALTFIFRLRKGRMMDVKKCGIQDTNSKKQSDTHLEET
UniProt O43791: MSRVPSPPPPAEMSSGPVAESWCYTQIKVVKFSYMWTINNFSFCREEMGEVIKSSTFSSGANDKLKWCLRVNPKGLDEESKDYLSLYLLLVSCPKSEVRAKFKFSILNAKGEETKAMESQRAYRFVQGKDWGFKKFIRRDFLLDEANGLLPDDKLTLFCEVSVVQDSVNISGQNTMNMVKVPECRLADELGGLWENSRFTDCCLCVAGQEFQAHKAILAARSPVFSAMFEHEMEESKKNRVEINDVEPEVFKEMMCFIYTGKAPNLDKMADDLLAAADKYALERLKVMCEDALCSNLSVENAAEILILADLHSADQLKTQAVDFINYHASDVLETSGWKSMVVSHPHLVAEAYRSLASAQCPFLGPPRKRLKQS

These are yes or no findings as the source states them, for the method shown. Binding seen in cells or lysates may run through a third protein. Some binding calls cover weakened binding; strength is not graded here.

Take “E3 ubiquitin ligase speckle-type zinc finger structural protein (SPOP) (from UniProt O43791 1-374) (enzyme)”: the binding entry is recorded as “binds”.

Values taken from PMC11714211.
